These are yes or no findings as the source states them, for the method shown. Some binding calls cover weakened binding; strength is not graded here.
Experiments:
[1] = molecular target: Tumor necrosis factor alpha (TNF) (UniProt P01375); experiment: ELISA, TNF coated
[2] = molecular target: TNFa mutant S86F/Y87H (mutant TNF, TNF-mu) (human) (UniProt P01375); experiment: binding assay of FIG. 6A
[3] = molecular target: Tumor necrosis factor alpha (TNF) (UniProt P01375); experiment: confocal microscopy on L929 cells
[4] = molecular target: Tumor necrosis factor alpha (TNF) (UniProt P01375); experiment: immunofluorescence microscopy on L929 cells

By UniProt entry, the sequences of proteins in these tests, tags left out. Where a name states a change or a piece, a line headed by the entry shows the natural chain unless it says otherwise. Residues count along the entry.
UniProt P01375, residues 77-233: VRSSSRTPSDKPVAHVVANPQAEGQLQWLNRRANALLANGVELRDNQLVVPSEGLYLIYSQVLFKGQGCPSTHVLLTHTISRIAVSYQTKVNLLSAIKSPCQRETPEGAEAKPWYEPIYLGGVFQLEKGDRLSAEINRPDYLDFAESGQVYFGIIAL

Measured: binding

B1: monoclonal antibody 244-12 (antibody, mouse IgG2b, kappa, V domains shown)
VH: QIQLVQSGPELKKPGETVKISCKASGYTFTNYGMNWVKQAPGKGLKWMGWINTYTGEPTYADDFKGRFAFSLETSANTAYLQINNLRNEGMATYFCARHYRYAWFPYWGQGTLVTVSA
VL: DIQMTQSPASLSASVGETVTITCRASGNIHIYLAWYQQKQGKSPQLLVYNAKTLADGVPSRFSGSGSGTQYSLKINSLQPEDFGSYYCQHFWSIPWTFGGGTKLEIKR
notes: also called antibody of the present invention
binds: [1] | [2] | [3] | [4]

Source: patent US20190062417A1 (SHANGHAI JW INFLINHIX, published 2019)
